Assay results taken from article PMC10637790.
These are yes or no findings as the source states them, for the method shown. In cells and extracts the contact can be indirect. Here binding means that the protein was enriched with, or labelled near, the bait; the list need not be complete. Tags and fused reporters may be left off the sequences shown.

Target: T1, Flag-tagged chondroitin polymerizing factor (CHPF) expressed in glioma cells (UniProt Q8IZ52)
T1 sequence: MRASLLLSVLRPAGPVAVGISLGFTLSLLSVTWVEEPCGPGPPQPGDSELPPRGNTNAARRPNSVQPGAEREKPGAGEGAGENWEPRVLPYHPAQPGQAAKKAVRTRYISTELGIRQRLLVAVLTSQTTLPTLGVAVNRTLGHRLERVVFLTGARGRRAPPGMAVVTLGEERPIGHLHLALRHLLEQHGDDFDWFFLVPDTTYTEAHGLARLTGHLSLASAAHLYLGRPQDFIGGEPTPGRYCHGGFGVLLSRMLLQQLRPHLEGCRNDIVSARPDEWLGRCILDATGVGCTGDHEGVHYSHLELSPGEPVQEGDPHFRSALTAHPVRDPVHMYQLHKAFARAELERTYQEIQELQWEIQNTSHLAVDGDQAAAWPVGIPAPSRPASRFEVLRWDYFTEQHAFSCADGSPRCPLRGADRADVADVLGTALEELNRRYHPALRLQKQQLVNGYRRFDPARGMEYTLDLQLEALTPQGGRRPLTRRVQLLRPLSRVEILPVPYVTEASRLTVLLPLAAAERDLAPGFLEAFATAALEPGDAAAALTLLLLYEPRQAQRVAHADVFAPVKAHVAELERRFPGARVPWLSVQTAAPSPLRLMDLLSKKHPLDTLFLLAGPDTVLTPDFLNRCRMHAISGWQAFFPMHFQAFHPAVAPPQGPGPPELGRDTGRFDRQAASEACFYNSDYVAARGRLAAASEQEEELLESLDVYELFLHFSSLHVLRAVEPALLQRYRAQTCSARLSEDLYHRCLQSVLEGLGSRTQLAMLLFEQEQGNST
Experiment: affinity purification with mass spectrometry; total protein from U251 cells immunoprecipitated with anti-Flag-CHPF or anti-IgG at 4 C for 12 h; SDS-PAGE bands analysed by LC-MS/MS

B1: Mitotic arrest deficient 1-like 1 (MAD1L1), endogenous in glioma cells (protein, UniProt Q9Y6D9 1-718)
chain: MEDLGENTMVLSTLRSLNNFISQRVEGGSGLDISTSAPGSLQMQYQQSMQLEERAEQIRSKSHLIQVEREKMQMELSHKRARVELERAASTSARNYEREVDRNQELLTRIRQLQEREAGAEEKMQEQLERNRQCQQNLDAASKRLREKEDSLAQAGETINALKGRISELQWSVMDQEMRVKRLESEKQELQEQLDLQHKKCQEANQKIQELQASQEARADHEQQIKDLEQKLSLQEQDAAIVKNMKSELVRLPRLERELKQLREESAHLREMRETNGLLQEELEGLQRKLGRQEKMQETLVGLELENERLLAKLQSWERLDQTMGLSIRTPEDLSRFVVELQQRELALKDKNSAVTSSARGLEKARQQLQEELRQVSGQLLEERKKRETHEALARRLQKRVLLLTKERDGMRAILGSYDSELTPAEYSPQLTRRMREAEDMVQKVHSHSAEMEAQLSQALEELGGQKQRADMLEMELKMLKSQSSSAEQSFLFSREEADTLRLKVEELEGERSRLEEEKRMLEAQLERRALQGDYDQSRTKVLHMSLNPTSVARQRLREDHSQLQAECERLRGLLRAMERGGTVPADLEAAAASLPSSKEVAELKKQVESAELKNQRLKEVFQTKIQEFRKACYTLTGYQIDITTENQYRLTSLYAEHPGDCLIFKATSPSGSKMQLLETEFSHTVGELIEVHLRRQDSIPAFLSSLTLELFSRQTVA
With B1 the binding was “binds”.
